From publication doi:10.1101/2020.06.06.138156 (bioRxiv, 2020) come the findings set out here.

Sequences of proteins named here, by UniProt entry; tags and fusion partners are left off.
UniProt P11940: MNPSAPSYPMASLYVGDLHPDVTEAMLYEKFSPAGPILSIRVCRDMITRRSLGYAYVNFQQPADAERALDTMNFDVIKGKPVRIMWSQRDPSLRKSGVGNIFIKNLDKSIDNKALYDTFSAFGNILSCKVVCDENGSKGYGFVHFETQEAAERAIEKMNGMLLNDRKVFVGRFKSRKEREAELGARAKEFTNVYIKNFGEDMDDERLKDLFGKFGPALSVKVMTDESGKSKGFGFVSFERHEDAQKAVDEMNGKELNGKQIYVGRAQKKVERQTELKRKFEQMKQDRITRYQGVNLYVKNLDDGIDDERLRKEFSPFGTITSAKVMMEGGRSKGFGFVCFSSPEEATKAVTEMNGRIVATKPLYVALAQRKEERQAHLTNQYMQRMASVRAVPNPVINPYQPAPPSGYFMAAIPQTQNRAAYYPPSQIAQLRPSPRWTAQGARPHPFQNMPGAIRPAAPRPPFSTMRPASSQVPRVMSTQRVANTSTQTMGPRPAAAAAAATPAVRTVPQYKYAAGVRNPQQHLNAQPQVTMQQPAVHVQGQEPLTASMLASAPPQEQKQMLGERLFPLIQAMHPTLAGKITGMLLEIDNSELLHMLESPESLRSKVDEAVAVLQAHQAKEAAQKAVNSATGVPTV
UniProt O75494: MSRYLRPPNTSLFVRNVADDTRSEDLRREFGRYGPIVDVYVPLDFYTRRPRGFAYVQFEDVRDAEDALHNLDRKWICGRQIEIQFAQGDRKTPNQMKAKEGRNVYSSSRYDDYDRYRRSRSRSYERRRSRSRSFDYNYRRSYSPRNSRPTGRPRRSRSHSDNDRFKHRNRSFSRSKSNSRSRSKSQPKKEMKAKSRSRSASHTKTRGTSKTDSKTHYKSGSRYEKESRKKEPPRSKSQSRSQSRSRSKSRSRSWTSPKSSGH
UniProt P26599: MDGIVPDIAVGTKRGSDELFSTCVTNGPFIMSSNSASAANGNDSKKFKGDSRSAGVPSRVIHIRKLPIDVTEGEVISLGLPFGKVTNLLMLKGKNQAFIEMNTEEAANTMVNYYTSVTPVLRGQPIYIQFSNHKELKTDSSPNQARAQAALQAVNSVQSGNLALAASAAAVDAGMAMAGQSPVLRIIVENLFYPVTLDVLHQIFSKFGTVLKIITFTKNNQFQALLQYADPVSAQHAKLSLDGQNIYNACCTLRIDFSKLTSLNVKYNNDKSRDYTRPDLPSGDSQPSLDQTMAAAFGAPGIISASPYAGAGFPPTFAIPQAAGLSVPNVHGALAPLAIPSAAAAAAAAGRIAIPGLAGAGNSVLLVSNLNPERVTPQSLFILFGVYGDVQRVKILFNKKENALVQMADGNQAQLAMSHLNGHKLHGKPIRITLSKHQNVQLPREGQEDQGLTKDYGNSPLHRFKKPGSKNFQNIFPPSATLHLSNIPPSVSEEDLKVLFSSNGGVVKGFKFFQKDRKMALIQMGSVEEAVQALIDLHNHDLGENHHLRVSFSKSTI

Like-named read-outs stand apart in the source and are kept apart here. Results are given in words; binding and its absence hold for the method and conditions named. Binding seen in cells or lysates may run through a third protein. Here binding means that the protein was enriched with, or labelled near, the bait; the list need not be complete.

Holding throughout (assay): affinity purification with mass spectrometry
The target in test [1] is T1, Halo-SETD2C (1404-2564) (human) (UniProt Q9BYW2).
T1 sequence: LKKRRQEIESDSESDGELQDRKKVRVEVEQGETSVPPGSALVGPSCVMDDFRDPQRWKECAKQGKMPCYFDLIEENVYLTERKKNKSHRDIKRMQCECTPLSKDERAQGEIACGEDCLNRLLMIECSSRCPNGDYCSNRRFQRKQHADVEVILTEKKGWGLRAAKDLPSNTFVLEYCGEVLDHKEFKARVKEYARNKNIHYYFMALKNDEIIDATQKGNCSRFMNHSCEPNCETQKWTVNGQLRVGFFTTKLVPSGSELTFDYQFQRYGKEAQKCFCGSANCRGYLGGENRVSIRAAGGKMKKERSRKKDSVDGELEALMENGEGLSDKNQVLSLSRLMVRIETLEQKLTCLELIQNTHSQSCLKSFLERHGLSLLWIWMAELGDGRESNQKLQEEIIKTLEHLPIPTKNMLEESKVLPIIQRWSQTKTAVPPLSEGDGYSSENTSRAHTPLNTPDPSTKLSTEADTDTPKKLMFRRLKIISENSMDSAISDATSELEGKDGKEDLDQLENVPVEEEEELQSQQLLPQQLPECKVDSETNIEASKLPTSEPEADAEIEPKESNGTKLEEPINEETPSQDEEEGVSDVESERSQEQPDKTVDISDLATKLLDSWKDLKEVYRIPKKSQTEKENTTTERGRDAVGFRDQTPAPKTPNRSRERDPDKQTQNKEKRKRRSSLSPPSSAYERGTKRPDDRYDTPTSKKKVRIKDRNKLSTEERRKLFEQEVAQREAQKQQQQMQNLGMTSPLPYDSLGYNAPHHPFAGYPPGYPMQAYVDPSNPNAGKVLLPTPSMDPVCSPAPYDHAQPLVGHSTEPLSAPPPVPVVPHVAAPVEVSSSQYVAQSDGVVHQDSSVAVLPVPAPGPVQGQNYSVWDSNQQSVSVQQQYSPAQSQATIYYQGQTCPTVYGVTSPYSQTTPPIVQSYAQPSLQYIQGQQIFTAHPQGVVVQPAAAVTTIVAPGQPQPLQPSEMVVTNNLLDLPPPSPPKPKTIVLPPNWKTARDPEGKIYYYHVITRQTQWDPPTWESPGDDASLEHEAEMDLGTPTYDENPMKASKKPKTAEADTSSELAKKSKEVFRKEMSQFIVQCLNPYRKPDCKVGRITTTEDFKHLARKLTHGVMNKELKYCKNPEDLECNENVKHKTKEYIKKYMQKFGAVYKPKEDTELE

In test [2] the target is T2, Halo-hnRNP L 162-321 (human) (UniProt P14866).
T2 sequence: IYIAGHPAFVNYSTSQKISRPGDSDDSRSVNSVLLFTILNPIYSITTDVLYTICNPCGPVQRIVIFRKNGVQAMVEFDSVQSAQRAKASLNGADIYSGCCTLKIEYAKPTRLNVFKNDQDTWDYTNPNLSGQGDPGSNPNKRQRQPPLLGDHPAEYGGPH

In test [3] the target is T1, Halo-SETD2C (1404-2564) (human). The source holds these as a separate data set.

As to “polyadenylate-binding protein 1 (endogenous) (from UniProt P11940 1-636)”, in test [1], the binding result was “binds”.

Regarding “serine/arginine-rich splicing factor 10 (endogenous) (from UniProt O75494 1-262)”, the binding result in test [1] is on record as “binds”.

As for “polypyrimidine tract binding protein 1 (endogenous) (from UniProt P26599 1-557)”, the binding entry in test [1] was “binds”.

B1: Mediator complex subunit Med23 (endogenous) (protein, UniProt Q9ULK4 1-1368)
chain: METQLQSIFEEVVKTEVIEEAFPGMFMDTPEDEKTKLISCLGAFRQFWGGLSQESHEQCIQWIVKFIHGQHSPKRISFLYDCLAMAVETGLLPPRLVCESLINSDTLEWERTQLWALTFKLVRKIIGGVDYKGVRDLLKVILEKILTIPNTVSSAVVQQLLAAREVIAYILERNACLLPAYFAVTEIRKLYPEGKLPHWLLGNLVSDFVDTFRPTARINSICGRCSLLPVVNNSGAICNSWKLDPATLRFPLKGLLPYDKDLFEPQTALLRYVLEQPYSRDMVCNMLGLNKQHKQRCPVLEDQLVDLVVYAMERSETEEKFDDGGTSQLLWQHLSSQLIFFVLFQFASFPHMVLSLHQKLAGRGLIKGRDHLMWVLLQFISGSIQKNALADFLPVMKLFDLLYPEKEYIPVPDINKPQSTHAFAMTCIWIHLNRKAQNDNSKLQIPIPHSLRLHHEFLQQSLRNKSLQMNDYKIALLCNAYSTNSECFTLPMGALVETIYGNGIMRIPLPGTNCMASGSITPLPMNLLDSLTVHAKMSLIHSIATRVIKLAHAKSSVALAPALVETYSRLLVYMEIESLGIKGFISQLLPTVFKSHAWGILHTLLEMFSYRMHHIQPHYRVQLLSHLHTLAAVAQTNQNQLHLCVESTALRLITALGSSEVQPQFTRFLSDPKTVLSAESEELNRALILTLARATHVTDFFTGSDSIQGTWCKDILQTIMSFTPHNWASHTLSCFPGPLQAFFKQNNVPQESRFNLKKNVEEEYRKWKSMSNENDIITHFSMQGSPPLFLCLLWKMLLETDHINQIGYRVLERIGARALVAHVRTFADFLVYEFSTSAGGQQLNKCIEILNDMVWKYNIVTLDRLILCLAMRSHEGNEAQVCYFIIQLLLLKPNDFRNRVSDFVKENSPEHWLQNDWHTKHMNYHKKYPEKLYFEGLAEQVDPPVQIQSPYLPIYFGNVCLRFLPVFDIVIHRFLELLPVSKSLETLLDHLGGLYKFHDRPVTYLYNTLHYYEMHLRDRAFLKRKLVHAIIGSLKDNRPQGWCLSDTYLKCAMNAREENPWVPDDTYYCRLIGRLVDTMAGKSPGPFPNCDWRFNEFPNPAAHALHVTCVELMALAVSGKEVGNALLNVVLKSQPLVPRENITAWMNAIGLIITALPEPYWIVLHDRIVSVISSPSLTSETEWVGYPFRLFDFTACHQSYSEMSCSYTLALAHAVWHHSSIGQLSLIPKFLTEVLLPIVKTEFQLLYVYHLVGPFLQRFQQERTRCMIEIGVAFYDMLLNVDQCSTHLNYMDPICDFLYHMKYMFTGDSVKEQVEKIICNLKPALKLRLRFITHISKMEPAAVPPQAMNSGSPAPQSNQVPVSLPVTQ
For B1, in test [2], the binding entry is recorded as “binds”.

B2: serine/arginine-rich splicing factor 3 (endogenous) (protein, UniProt P84103 1-164)
chain: MHRDSCPLDCKVYVGNLGNNGNKTELERAFGYYGPLRSVWVARNPPGFAFVEFEDPRDAADAVRELDGRTLCGCRVRVELSNGEKRSRNRGPPPSWGRRPRDDYRRRSPPPRRRSPRRRSFSRSRSRSLSRDRRRERSLSRERNHKPSRSFSRSRSRSRSNERK
For B2, in test [3], the binding entry is listed as “binds”.
